Reference: article PMC10533593 (Molecular Neurobiology, 2023)
Results are given in words; binding and its absence hold for the method and conditions named. Binding seen in cells or lysates may run through a third protein. Some results given as binding are weak or reduced against the parent protein; the word gives no strength. Values belong to the substance of their own block, whether it stands above or below them.

Amino acid sequences for entries named in this document (tags omitted).
UniProt P35348: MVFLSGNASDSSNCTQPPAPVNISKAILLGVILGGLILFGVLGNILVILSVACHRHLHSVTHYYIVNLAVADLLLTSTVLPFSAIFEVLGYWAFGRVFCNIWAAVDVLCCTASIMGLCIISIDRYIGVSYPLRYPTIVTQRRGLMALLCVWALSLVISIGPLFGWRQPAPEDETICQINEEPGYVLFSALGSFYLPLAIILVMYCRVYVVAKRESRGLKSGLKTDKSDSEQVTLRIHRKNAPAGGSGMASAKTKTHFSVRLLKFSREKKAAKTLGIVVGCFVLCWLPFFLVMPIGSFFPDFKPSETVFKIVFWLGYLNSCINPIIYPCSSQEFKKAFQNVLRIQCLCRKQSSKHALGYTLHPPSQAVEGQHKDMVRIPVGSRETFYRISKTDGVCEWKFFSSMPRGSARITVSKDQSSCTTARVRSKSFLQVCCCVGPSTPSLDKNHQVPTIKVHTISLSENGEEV
UniProt P08913: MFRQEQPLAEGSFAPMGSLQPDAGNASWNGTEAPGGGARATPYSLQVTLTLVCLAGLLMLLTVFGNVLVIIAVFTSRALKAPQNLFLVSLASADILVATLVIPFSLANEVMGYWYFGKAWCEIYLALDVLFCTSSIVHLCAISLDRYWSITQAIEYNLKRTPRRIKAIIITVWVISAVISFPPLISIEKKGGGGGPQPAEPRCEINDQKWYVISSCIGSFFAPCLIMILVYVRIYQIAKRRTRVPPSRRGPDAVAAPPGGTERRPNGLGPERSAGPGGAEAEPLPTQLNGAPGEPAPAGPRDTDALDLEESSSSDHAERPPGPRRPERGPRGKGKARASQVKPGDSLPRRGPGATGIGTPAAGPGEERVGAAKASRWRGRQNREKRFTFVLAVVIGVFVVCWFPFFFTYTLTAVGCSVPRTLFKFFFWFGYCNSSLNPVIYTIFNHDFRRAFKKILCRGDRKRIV
UniProt P32121: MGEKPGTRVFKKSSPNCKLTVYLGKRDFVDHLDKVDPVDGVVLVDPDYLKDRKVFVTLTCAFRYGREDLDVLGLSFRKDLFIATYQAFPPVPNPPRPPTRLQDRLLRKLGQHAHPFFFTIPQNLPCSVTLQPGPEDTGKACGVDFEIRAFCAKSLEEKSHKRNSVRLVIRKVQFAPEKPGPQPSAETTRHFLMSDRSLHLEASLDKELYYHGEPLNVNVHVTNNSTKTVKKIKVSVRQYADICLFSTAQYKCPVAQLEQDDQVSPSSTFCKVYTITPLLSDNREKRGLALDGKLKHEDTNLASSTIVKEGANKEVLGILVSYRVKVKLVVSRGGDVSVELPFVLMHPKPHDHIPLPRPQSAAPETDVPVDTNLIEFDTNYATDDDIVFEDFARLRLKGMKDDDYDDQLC

What was measured:
[1] = biological target: human α1A adrenoreceptor fused to Rluc (human) (UniProt P35348); assay: FRET or BRET; BRET saturation in intact HEK-293T cells: constant amount of cDNA of the Rluc-fused receptor, increasing amounts of cDNA of the YFP-fused receptor; coelenterazine H 5 μM; HBSS with 0.1% glucose; single-phase saturation fit
[2] = biological target: human α2A adrenoceptor fused to Rluc (human) (UniProt P08913); assay: as above
[3] = biological target: human α1A adrenoreceptor fused to YFP (human) (UniProt P35348); assay: FRET or BRET; ligand-induced BRET between β-arrestin-2-Rluc and α1AR-YFP in intact HEK-293T cells co-transfected with non-fused D4.4R or D4.7R; read 7 min after drug

binding [1]: no binding
Substance: human α2A adrenoceptor fused to YFP (from UniProt P08913 1-465) (receptor)

binding [2]: no binding
Substance: human α1A adrenoreceptor fused to YFP (from UniProt P35348 1-466)

binding [3]: binds
Substance: β-arrestin-2 fused to Rluc (from UniProt P32121 1-409)
